Assay [1] concerns the target T1, checkpoint kinase-1 (Chk1) (human (endogenous in MCF-7)) (UniProt O14757).
T1 sequence: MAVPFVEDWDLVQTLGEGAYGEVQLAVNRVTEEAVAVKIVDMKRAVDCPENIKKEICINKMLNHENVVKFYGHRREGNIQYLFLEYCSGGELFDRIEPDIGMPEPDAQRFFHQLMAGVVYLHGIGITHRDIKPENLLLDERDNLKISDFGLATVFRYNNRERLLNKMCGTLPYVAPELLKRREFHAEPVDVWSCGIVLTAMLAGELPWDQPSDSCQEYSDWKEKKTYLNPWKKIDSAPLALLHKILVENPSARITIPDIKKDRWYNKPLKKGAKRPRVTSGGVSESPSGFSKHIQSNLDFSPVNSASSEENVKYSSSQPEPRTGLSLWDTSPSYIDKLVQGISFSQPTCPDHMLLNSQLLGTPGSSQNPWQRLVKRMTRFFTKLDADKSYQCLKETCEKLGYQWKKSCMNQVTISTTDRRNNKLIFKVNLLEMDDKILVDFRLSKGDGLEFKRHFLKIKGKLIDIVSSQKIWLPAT
Nature of the assay: co-IP; reciprocal co-immunoprecipitation of endogenous proteins from MCF-7 lysate; NETN buffer (20 mM Tris-HCl pH 8.0, 100 mM NaCl, 0.5% Nonidet P-40, 1 mM EDTA) with benzonase; 4 °C; Western blotting. (A western blot detects proteins with antibodies after separation by electrophoresis.)

In another assay the target is T2, HA epitope-tagged Chk1 (UniProt O14757).
T2 sequence: T1 sequence
Nature of the assay: co-IP; HA-Chk1 and Myc-PPP2R2A (WT or mutant) co-transfected into 293T cells, immunoprecipitation, detection with anti-HA and anti-Myc antibodies; NETN buffer, 4 °C.

These are yes or no findings as the source states them, for the method shown. In cells and extracts the contact can be indirect. Some results given as binding are weak or reduced against the parent protein; the word gives no strength. For some assays here: Sequences can lack the tags named with a protein.

B1: PPP2R2A (the B-regulatory subunit of Phosphatase PP2A) (protein, UniProt P63151 1-447)
chain: MAGAGGGNDIQWCFSQVKGAVDDDVAEADIISTVEFNHSGELLATGDKGGRVVIFQQEQENKIQSHSRGEYNVYSTFQSHEPEFDYLKSLEIEEKINKIRWLPQKNAAQFLLSTNDKTIKLWKISERDKRPEGYNLKEEDGRYRDPTTVTTLRVPVFRPMDLMVEASPRRIFANAHTYHINSISINSDYETYLSADDLRINLWHLEITDRSFNIVDIKPANMEELTEVITAAEFHPNSCNTFVYSSSKGTIRLCDMRASALCDRHSKLFEEPEDPSNRSFFSEIISSISDVKFSHSGRYMMTRDYLSVKIWDLNMENRPVETYQVHEYLRSKLCSLYENDCIFDKFECCWNGSDSVVMTGSYNNFFRMFDRNTKRDITLEASRENNKPRTVLKPRKVCASGKRKKDEISVDSLDFNKKILHTAWHPKENIIAVATTNNLYIFQDKVN
In the case of B1, in assay [1], the binding result is listed as “binds”.

B2: Myc-PPP2R2A wild-type (protein, UniProt P63151 1-447)
chain: B1 chain
For B2, in the assay with HA epitope-tagged Chk1, the binding result is listed as “binds”.

The values above are taken from PMC9925808.
